Literature values as cited in patent US20120122727A1, “IN VITRO METHOD FOR PREDICTING WHETHER A COMPOUND IS GENOTOXIC IN VIVO” (priority 2009, published 2012).
At least one structure is not confirmed: it was looked up by name or label, or the drawing left a doubt.

Experiments:
[1] = known result in conventional in vitro genotoxicity tests; cited from earlier work
[2] = known genotoxicity in vivo; cited from earlier work

**Q.** For `Nc1ccccc1C(=O)O` [ANAC, o-Anthranilic acid], which GTX in vitro [1] is on record?
**A.** +

**Q.** What about the GTX in vivo [2] of the same compound?
**A.** −

**Q.** With `CN(C)N=O` [DMN, Dimethylnitrosamine] as the compound, how does the GTX in vitro [1] read?
**A.** +

**Q.** And the GTX in vivo [2]?
**A.** +
